Experimental data as given in paper doi:10.1101/535831.
No constants are given. Whether binding was seen depends on the method and setting. Binding seen in cells or lysates may run through a third protein. Some results given as binding are weak or reduced against the parent protein; the word gives no strength.

Protein sequences, listed by entry. Tags and fused reporters are not part of them.
UniProt Q9H1D9: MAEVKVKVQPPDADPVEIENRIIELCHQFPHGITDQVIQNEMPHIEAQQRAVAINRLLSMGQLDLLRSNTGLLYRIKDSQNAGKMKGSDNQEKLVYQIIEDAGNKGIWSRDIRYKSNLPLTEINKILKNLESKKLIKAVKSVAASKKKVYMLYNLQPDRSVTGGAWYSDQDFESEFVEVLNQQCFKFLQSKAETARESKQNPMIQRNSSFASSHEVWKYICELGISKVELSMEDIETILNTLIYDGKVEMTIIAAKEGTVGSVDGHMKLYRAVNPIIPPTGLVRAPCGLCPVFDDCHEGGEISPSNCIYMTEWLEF

Target: HaloTag-POLR3F (human) (UniProt Q9H1D9)
Assay: pull-down

binding: binds
B1: RNA polymerase III catalytic subunit (POLR3A) (protein, UniProt O14802 1-1390)
chain: MVKEQFRETDVAKKISHICFGMKSPEEMRQQAHIQVVSKNLYSQDNQHAPLLYGVLDHRMGTSEKDRPCETCGKNLADCLGHYGYIDLELPCFHVGYFRAVIGILQMICKTCCHIMLSQEEKKQFLDYLKRPGLTYLQKRGLKKKISDKCRKKNICHHCGAFNGTVKKCGLLKIIHEKYKTNKKVVDPIVSNFLQSFETAIEHNKEVEPLLGRAQENLNPLVVLNLFKRIPAEDVPLLLMNPEAGKPSDLILTRLLVPPLCIRPSVVSDLKSGTNEDDLTMKLTEIIFLNDVIKKHRISGAKTQMIMEDWDFLQLQCALYINSELSGIPLNMAPKKWTRGFVQRLKGKQGRFRGNLSGKRVDFSGRTVISPDPNLRIDEVAVPVHVAKILTFPEKVNKANINFLRKLVQNGPEVHPGANFIQQRHTQMKRFLKYGNREKMAQELKYGDIVERHLIDGDVVLFNRQPSLHKLSIMAHLARVKPHRTFRFNECVCTPYNADFDGDEMNLHLPQTEEAKAEALVLMGTKANLVTPRNGEPLIAAIQDFLTGAYLLTLKDTFFDRAKACQIIASILVGKDEKIKVRLPPPTILKPVTLWTGKQIFSVILRPSDDNPVRANLRTKGKQYCGKGEDLCANDSYVTIQNSELMSGSMDKGTLGSGSKNNIFYILLRDWGQNEAADAMSRLARLAPVYLSNRGFSIGIGDVTPGQGLLKAKYELLNAGYKKCDEYIEALNTGKLQQQPGCTAEETLEALILKELSVIRDHAGSACLRELDKSNSPLTMALCGSKGSFINISQMIACVGQQAISGSRVPDGFENRSLPHFEKHSKLPAAKGFVANSFYSGLTPTEFFFHTMAGREGLVDTAVKTAETGYMQRRLVKSLEDLCSQYDLTVRSSTGDIIQFIYGGDGLDPAAMEGKDEPLEFKRVLDNIKAVFPCPSEPALSKNELILTTESIMKKSEFLCCQDSFLQEIKKFIKGVSEKIKKTRDKYGINDNGTTEPRVLYQLDRITPTQVEKFLETCRDKYMRAQMEPGSAVGALCAQSIGEPGTQMTLKTFHFAGVASMNITLGVPRIKEIINASKAISTPIITAQLDKDDDADYARLVKGRIEKTLLGEISEYIEEVFLPDDCFILVKLSLERIRLLRLEVNAETVRYSICTSKLRVKPGDVAVHGEAVVCVTPRENSKSSMYYVLQFLKEDLPKVVVQGIPEVSRAVIHIDEQSGKEKYKLLVEGDNLRAVMATHGVKGTRTTSNNTYEVEKTLGIEAARTTIINEIQYTMVNHGMSIDRRHVMLLSDLMTYKGEVLGITRFGLAKMKESVLMLASFEKTADHLFDAAYFGQKDSVCGVSECIIMGIPMNIGTGLFKLLHKADRDPNPPKRPLIFDTNEFHIPLVT
